Reference: paper doi:10.1101/2023.08.31.555722
No constants are given. Whether binding was seen depends on the method and setting. In cells and extracts the contact can be indirect. Some results given as binding are weak or reduced against the parent protein; the word gives no strength. Tags and fused reporters may be left off the sequences shown.

T1: Tgfbrap1-FLAG (human) (UniProt Q8WUH2)
T1 sequence: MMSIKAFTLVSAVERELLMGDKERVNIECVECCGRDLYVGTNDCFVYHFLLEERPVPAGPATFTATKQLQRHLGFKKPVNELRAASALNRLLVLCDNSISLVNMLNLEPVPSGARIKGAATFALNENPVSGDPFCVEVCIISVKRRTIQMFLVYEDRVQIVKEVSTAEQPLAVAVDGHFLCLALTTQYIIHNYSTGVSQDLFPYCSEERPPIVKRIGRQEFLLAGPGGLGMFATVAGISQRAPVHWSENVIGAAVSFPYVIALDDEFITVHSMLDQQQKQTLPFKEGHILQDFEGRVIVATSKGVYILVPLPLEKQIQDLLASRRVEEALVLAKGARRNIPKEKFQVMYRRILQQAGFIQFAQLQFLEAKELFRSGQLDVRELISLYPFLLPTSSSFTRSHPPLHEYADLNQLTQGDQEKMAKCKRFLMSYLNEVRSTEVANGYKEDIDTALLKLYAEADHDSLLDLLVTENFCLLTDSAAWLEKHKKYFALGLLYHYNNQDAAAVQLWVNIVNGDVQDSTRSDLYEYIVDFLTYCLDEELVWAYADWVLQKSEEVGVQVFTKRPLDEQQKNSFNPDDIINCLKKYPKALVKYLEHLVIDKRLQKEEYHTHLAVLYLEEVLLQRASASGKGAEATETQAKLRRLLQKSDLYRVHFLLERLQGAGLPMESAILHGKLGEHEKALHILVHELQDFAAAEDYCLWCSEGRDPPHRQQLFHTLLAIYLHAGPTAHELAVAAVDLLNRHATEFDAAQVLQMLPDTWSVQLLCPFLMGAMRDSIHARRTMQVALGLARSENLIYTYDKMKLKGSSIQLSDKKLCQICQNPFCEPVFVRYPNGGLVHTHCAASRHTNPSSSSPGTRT

T2: Vps39-FLAG (human) (UniProt Q96JC1)
T2 sequence: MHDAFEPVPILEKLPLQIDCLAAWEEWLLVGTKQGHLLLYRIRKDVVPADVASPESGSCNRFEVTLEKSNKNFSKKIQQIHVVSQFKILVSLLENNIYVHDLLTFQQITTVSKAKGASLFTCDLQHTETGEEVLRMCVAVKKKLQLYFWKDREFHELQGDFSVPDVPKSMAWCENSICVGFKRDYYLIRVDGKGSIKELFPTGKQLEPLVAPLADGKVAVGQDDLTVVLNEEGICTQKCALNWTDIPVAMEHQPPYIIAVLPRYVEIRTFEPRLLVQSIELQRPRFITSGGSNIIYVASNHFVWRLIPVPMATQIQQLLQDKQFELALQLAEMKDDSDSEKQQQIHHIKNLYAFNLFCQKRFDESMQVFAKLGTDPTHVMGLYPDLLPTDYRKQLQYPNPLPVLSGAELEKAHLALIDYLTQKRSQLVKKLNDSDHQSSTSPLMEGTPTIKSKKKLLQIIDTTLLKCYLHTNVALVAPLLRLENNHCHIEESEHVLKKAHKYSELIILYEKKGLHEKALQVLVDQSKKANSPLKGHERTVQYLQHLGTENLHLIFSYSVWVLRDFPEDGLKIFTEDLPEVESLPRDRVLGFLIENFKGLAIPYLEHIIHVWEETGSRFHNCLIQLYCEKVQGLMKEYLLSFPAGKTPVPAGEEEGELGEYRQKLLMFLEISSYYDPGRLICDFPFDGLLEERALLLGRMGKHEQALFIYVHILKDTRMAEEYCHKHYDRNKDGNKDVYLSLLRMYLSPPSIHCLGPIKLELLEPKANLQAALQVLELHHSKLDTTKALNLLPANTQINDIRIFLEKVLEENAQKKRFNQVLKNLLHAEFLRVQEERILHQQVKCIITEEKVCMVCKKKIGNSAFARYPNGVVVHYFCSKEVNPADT


Tests used:
[1] = target: T1, Tgfbrap1-FLAG (human); assay: co-IP
[2] = target: T2, Vps39-FLAG (human); assay: co-IP

Binder	binding [1]	binding [2]
Vps11 (protein, UniProt Q9H270 1-941) MAAYLQWRRFVFFDKELVKEPLSNDGAAPGATPASGSAASKFLCLPPGITVCDSGRGSLVFGDMEGQIWFLPRSLQLTGFQAYKLRVTHLYQLKQHNILASVGEDEEGINPLVKIWNLEKRDGGNPLCTRIFPAIPGTEPTVVSCLTVHENLNFMAIGFTDGSVTLNKGDITRDRHSKTQILHKGNYPVTGLAFRQAGKTTHLFVVTTENVQSYIVSGKDYPRVELDTHGCGLRCSALSDPSQDLQFIVAGDECVYLYQPDERGPCFAFEGHKLIAHWFRGYLIIVSRDRKVSPKSEFTSRDSQSSDKQILNIYDLCNKFIAYSTVFEDVVDVLAEWGSLYVLTRDGRVHALQEKDTQTKLEMLFKKNLFEMAINLAKSQHLDSDGLAQIFMQYGDHLYSKGNHDGAVQQYIRTIGKLEPSYVIRKFLDAQRIHNLTAYLQTLHRQSLANADHTTLLLNCYTKLKDSSKLEEFIKKKSESEVHFDVETAIKVLRQAGYYSHALYLAENHAHHEWYLKIQLEDIKNYQEALRYIGKLPFEQAESNMKRYGKILMHHIPEQTTQLLKGLCTDYRPSLEGRSDREAPGCRANSEEFIPIFANNPRELKAFLEHMSEVQPDSPQGIYDTLLELRLQNWAHEKDPQVKEKLHAEAISLLKSGRFCDVFDKALVLCQMHDFQDGVLYLYEQGKLFQQIMHYHMQHEQYRQVISVCERHGEQDPSLWEQALSYFARKEEDCKEYVAAVLKHIENKNLMPPLLVVQTLAHNSTATLSVIRDYLVQKLQKQSQQIAQDELRVRRYREETTRIRQEIQELKASPKIFQKTKCSICNSALELPSVHFLCGHSFHQHCFESYSESDADCPTCLPENRKVMDMIRAQEQKRDLHDQFQHQLKCSNDSFSVIADYFGRGVFNKLTLLTDPPTARLTSSLEAGLQRDLLMHSRRGT	binds	binds
Vps18 (protein, UniProt Q9P253 1-973) MASILDEYENSLSRSAVLQPGCPSVGIPHSGYVNAQLEKEVPIFTKQRIDFTPSERITSLVVSSNQLCMSLGKDTLLRIDLGKANEPNHVELGRKDDAKVHKMFLDHTGSHLLIALSSTEVLYVNRNGQKVRPLARWKGQLVESVGWNKALGTESSTGPILVGTAQGHIFEAELSASEGGLFGPAPDLYFRPLYVLNEEGGPAPVCSLEAERGPDGRSFVIATTRQRLFQFIGRAAEGAEAQGFSGLFAAYTDHPPPFREFPSNLGYSELAFYTPKLRSAPRAFAWMMGDGVLYGALDCGRPDSLLSEERVWEYPEGVGPGASPPLAIVLTQFHFLLLLADRVEAVCTLTGQVVLRDHFLEKFGPLKHMVKDSSTGQLWAYTERAVFRYHVQREARDVWRTYLDMNRFDLAKEYCRERPDCLDTVLAREADFCFRQRRYLESARCYALTQSYFEEIALKFLEARQEEALAEFLQRKLASLKPAERTQATLLTTWLTELYLSRLGALQGDPEALTLYRETKECFRTFLSSPRHKEWLFASRASIHELLASHGDTEHMVYFAVIMQDYERVVAYHCQHEAYEEALAVLARHRDPQLFYKFSPILIRHIPRQLVDAWIEMGSRLDARQLIPALVNYSQGGEVQQVSQAIRYMEFCVNVLGETEQAIHNYLLSLYARGRPDSLLAYLEQAGASPHRVHYDLKYALRLCAEHGHHRACVHVYKVLELYEEAVDLALQVDVDLAKQCADLPEEDEELRKKLWLKIARHVVQEEEDVQTAMACLASCPLLKIEDVLPFFPDFVTIDHFKEAICSSLKAYNHHIQELQREMEEATASAQRIRRDLQELRGRYGTVEPQDKCATCDFPLLNRPFYLFLCGHMFHADCLLQAVRPGLPAYKQARLEELQRKLGAAPPPAKGSARAKEAEGGAATAGPSREQLKADLDELVAAECVYCGELMIRSIDRPFIDPQRYEEEQLSWL	binds	binds
